# Laboratory results reported in PMC6331645.
# The chains behind the UniProt entries cited, without tags or fusion partners. Where a name states a change or a piece, a line headed by the entry shows the natural chain unless it says otherwise.
# UniProt P60953: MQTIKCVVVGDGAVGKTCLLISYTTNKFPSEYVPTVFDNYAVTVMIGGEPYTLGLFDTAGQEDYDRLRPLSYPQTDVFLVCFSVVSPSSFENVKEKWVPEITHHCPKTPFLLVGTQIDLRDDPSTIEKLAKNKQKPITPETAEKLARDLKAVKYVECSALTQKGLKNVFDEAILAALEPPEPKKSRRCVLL
# UniProt Q13153: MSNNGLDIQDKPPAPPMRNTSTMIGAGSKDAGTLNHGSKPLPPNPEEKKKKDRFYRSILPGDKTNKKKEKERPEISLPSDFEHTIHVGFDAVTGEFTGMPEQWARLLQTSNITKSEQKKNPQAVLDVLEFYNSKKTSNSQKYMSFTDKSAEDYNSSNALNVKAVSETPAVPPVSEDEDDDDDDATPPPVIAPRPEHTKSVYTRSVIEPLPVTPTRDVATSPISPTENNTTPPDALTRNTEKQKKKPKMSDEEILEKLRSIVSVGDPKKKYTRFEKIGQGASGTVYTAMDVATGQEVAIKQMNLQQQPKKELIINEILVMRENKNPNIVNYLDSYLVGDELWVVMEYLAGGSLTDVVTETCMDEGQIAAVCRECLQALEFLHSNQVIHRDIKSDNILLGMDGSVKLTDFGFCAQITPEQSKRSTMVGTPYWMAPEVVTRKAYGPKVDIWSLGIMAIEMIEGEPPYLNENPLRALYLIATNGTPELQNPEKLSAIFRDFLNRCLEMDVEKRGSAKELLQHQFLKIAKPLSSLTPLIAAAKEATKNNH
# No constants are given. Whether binding was seen depends on the method and setting. Binding seen in cells or lysates may run through a third protein. Some binding calls cover weakened binding; strength is not graded here.
# Assays:
# [1] = biological target: GA-Cdc42, the GTPase half of the G-Cdc42 sensor (UniProt P60953); assay: split reporter; ddFP sensors in neurons: cultured rat hippocampal neurons (OptoTrkB, blue light), mouse organotypic cortical slices (two-photon glutamate uncaging on single spines) and motor cortex of living mice (two-photon imaging)
# [2] = biological target: RA-HRas (wild-type), the Ras half of the R-HRas sensor (UniProt P01112); assay: split reporter; ddFP cross-reaction test in migrating MDA-MB-231 cells: a full sensor (R-HRas or G-Rac1) co-expressed with the copy A-labelled non-target GTPase (GA-Rac1 or RA-HRas, with IRES-Lyn-iRFP682); RA and GA signals followed over time
# [3] = biological target: RA-Cdc42 (wild-type), the GTPase half of the R-Cdc42 sensor (UniProt P60953); assay: split reporter; ddFP sensors from bicistronic 2A vectors in living cultured cell lines (HeLa, MDA-MB-231), confocal imaging at 37 °C; stimulated with EGF (50 ng ml^-1) and gefitinib (400 nM), rapamycin-induced recruitment of activators to the plasma membrane, or random cell migration
substance,measurement,setting,value
"B3-CRIB_(Pak1) (B3-labelled CRIB domain of Pak1, amino acids 69-108) (from UniProt Q13153 69-108) (domain or fragment)",binding,[1],binds
same,binding,[2],no binding
same,binding,[3],binds
